In US20210380651A1 (SIOLTA THERAPEUTICS, published 2021):
No constants are given. Whether binding was seen depends on the method and setting. Some results given as binding are weak or reduced against the parent protein; the word gives no strength. Tags and fused reporters may be left off the sequences shown.

Target: T1, mouse Fc epsilon receptor 1 a-chain (mFCER1A) protein (mouse) (UniProt P20489)
T1 sequence (looked up): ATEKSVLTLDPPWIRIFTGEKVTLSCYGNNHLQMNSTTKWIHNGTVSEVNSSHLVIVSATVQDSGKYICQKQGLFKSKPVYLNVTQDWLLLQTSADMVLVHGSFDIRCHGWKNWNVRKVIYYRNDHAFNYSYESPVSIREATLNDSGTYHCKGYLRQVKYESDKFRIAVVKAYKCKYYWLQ
Assay: ELISA, plates coated with increasing concentrations of mFCER1A and probed with IgE-Fc

binding: binds
B1: IgE-Fc protein having the amino acid sequence set forth in SEQ ID NO: 5 (protein, not shown: small tags and cut ends)
chain: MVRSVRPVNITEPTLELLHSSCDPNAFHSTIQLYCFIYGHILNDVSVSWLMDDREITDTLAQTVLIKEEGKLASTCSKLNITEQQWMSESTFTCKVTSQGVDYLAHTRRCPDHEPRGVITYLIPPSPLDLYQNGAPKLTCLVVDLESEKNVNVTWNQEKKTSVSASQWYTKHHNNATTSITSILPVVAKDWIEGYGYQCIVDHPDFPKPIVRSITKTPGQRSAPEVYVFPPPEEESEDKRTLTCLIQNFFPEDISVQWLGDGKLISNSQHSTTTPLKSNGSNQGFFIFSRLEVAKTLWTQRKQFTCQVIHEALQKPRKLEKTISTSLGNTSLRPS
modifications: glycosylated (fully glycosylated IgE-Fc)
